# PubChem BioAssay AID504467 (National Center for Advancing Translational Sciences (NCATS), 2011)
# About 7,700 (2.3%) of roughly 330,000 compounds were called active. The inconclusive results got no clear call from the source; some entries with a clear call stand among them for comparison. The call rests on the fitted dose curve; in most records, active means well fitted inhibition curve with a large enough effect; inconclusive means small, poorly fitted or top-dose-only effect, or effect the other way; inactive means flat fitted curve, though single readings scatter. Where the call is inconclusive, the potency comes from a doubtful curve fit.
# Assay: qHTS screen for small molecules that inhibit ELG1-dependent DNA repair in human embryonic kidney (HEK293T) cells expressing luciferase-tagged ELG1; further: nearly all actives have a fitted effect of over 55% in size
# Details: HEK293T ELG1-luciferase reporter, luminescence, 16 h, DNA damage induced by 5-fluorouridine; activity change, negative = inhibition: at 46.1 µM (top of the series)
# Summary of the method: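 5-Fluorouridine DNA damage + compound/DMSO, 2,000 cells/well, 16 h, 37 °C/5% CO2. ONE-Glo, 30 min RT, luminescence. Readout = decrease in reporter signal.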
# On the % scale 0 is the no-effect control and ±100 the full control effect; potency means the concentration at half of the fitted maximal effect.
SMILES,"activity change, negative = inhibition",Potency
Cc1ccc(NC(=O)/C(=C/c2cccs2)NC(=O)c2ccco2)c(C)c1,inactive: 5.11%,
Fc1ccc(-n2cc(-c3ccccc3)c3c(NN4CCOCC4)ncnc32)cc1,,"inconclusive: 18.4 µM [inhibitor, partial curve]"
COc1cccc(CN(C)C(=O)c2ccc(COc3ccc(Cl)cc3)cc2)c1OC,,"inconclusive: 3.66 µM [activator, full curve]"
COc1ccc(/C=N/NC(=O)CCC(=O)Nc2ccc(Br)cc2)c(OC)c1,inactive: 0.745%,
Clc1ccc(Oc2cccc(/C=N/n3cnnc3)c2)cc1,,"inconclusive: 16.4 µM [inhibitor, partial curve, poor fit]"
Cc1ccc(S(=O)(=O)N2CCCC2)s1,inactive: 14.6%,
O=[N+]([O-])c1ccccc1CSc1nnc2ccccn12,,"inconclusive: 23.1 µM [activator, partial curve]"
O=C(O)c1cccc(NC(=S)NC(=O)c2ccc(-c3ccccc3)cc2)c1,,"inconclusive: 0.73 µM [activator, partial curve]"
CCOC(=O)CCNC(=O)CCc1nnc(CCCc2ccccc2)o1,,"inconclusive: 25.9 µM [activator, single point]"
O=C1C=C(O)c2c(O)cccc2C1=O,,"inconclusive: 10.3 µM [inhibitor, partial curve]"
CCOC(=O)c1sc(NC(=O)c2cc(-c3ccccc3)nc3ccccc23)c(C#N)c1C,,"inconclusive: 5.17 µM [inhibitor, single point]"
COc1ccc2[nH]c(=O)c(CN(c3ccccc3)S(=O)(=O)c3ccccc3)cc2c1,inactive: -0.294%,
CC(Sc1nnc2ccccn12)C(=O)Nc1ncc(Cl)cc1Cl (stereo not drawn),,"inconclusive: 23.1 µM [activator, partial curve, poor fit]"
C[C@H](NC(=O)c1nc[nH]c1C(=O)N1CCN(c2ccccc2)CC1)C(=O)OC(C)(C)C,inactive: 13.5%,
COc1ccc(-n2nc(C(=O)NCC(=O)N3CCN(c4ccccn4)CC3)c3ccccc3c2=O)cc1Cl,inactive: -10.4%,
CCN(CC)S(=O)(=O)c1ccc(N2CCOCC2)c(NC(=O)c2cc(=O)[nH]c3ccccc23)c1,,"inconclusive: 20.6 µM [inhibitor, single point]"
COc1ccc(N2CC(C(=O)NC3CCSC3=O)CC2=O)cc1 (stereo not drawn),,"inconclusive: 16.4 µM [inhibitor, single point]"
O=C1Nc2ccccc2/C1=C/c1cnc(-c2ccccc2)[nH]1,,"inconclusive: 10.3 µM [activator, partial curve]"
Cc1[nH]c2ccccc2c1C(=O)CSC(=S)N(C)C1CCCCC1,,"inconclusive: 29.1 µM [activator, single point]"
O=C(Nc1nc2ccc(S(=O)(=O)N3CCCC3)cc2s1)c1ccccn1,,active: 20.6 µM
CC1CN(CCCCOc2ccc(C(C)C)cc2)CC(C)O1 (stereo not drawn),inactive: 7.83%,
CCCOc1ccccc1C1NC(=O)NC(C)=C1C(=O)OCCOCC (stereo not drawn),inactive: 7.24%,
CCC(C)(C)C(=O)Nc1cc([N+](=O)[O-])ccc1Cl,inactive: 8.42%,
CCOC(=O)N1CCN(C(=O)c2ccc3c(c2)N(CC)CCS3)CC1,inactive: -14.1%,

SMILES,"activity change, negative = inhibition",Potency
CC(=O)c1ccc(N2CCN(S(=O)(=O)c3ccc4c5c3CC(=O)N5CC(C)S4)CC2)cc1 (stereo not drawn),inactive: -20%,
COc1cc(O)c2c(c1)OC(c1ccc(O)cc1)CC2=O (stereo not drawn),inactive: 9.54%,
C=CCNC(=O)c1cc(-c2ccc3c(c2)OCO3)on1,,"inconclusive: 2.91 µM [activator, partial curve]"
COc1ccc(OCCSc2nnc(C)n2-c2ccccc2)cc1,inactive: -12.9%,
Cc1ccccc1/C=N/Nc1ccnc2cc(Cl)ccc12,,"inconclusive: 29.1 µM [inhibitor, single point]"
Cc1csc(NC(=O)CCCSc2nc3ccccc3s2)n1,,"inconclusive: 29.1 µM [inhibitor, single point]"
O=C(NC(=S)NCCC1=CCCCC1)c1cccnc1,inactive: -14.9%,
COc1cc(/C=C/c2ccc3cccc(O)c3n2)cc(Cl)c1OC,,"inconclusive: 7.3 µM [activator, partial curve]"
O=C(c1cc(S(=O)(=O)N2CCN(c3ccccc3)CC2)ccc1Cl)N1CCCC(C(F)(F)F)C1 (stereo not drawn),inactive: 4.29%,
Cc1ccc(NC(=O)c2cc3ccccc3cc2O)cc1,,"inconclusive: 2.59 µM [activator, partial curve]"
CCOC(=O)N1CCN(C(=O)CSc2nnc(-c3cccs3)o2)CC1,inactive: -0.101%,
Oc1c(CNc2ccccc2)cc(COCc2ccccc2)c2cccnc12,,"inconclusive: 6.51 µM [inhibitor, single point]"
O=C(OCc1nc2ccccc2[nH]1)C1CCCCC1,,"inconclusive: 29.1 µM [activator, partial curve, poor fit]"
O=C(Nc1ccc2c(c1)OCO2)N1CCN(c2ncccn2)CC1,,"inconclusive: 29.1 µM [activator, partial curve, poor fit]"
CCSc1nnc(-c2sc3nnc(-c4ccccc4)c(-c4ccccc4)c3c2N)o1,,"inconclusive: 8.2 µM [inhibitor, partial curve]"
CC(=O)Nc1ccc(OCc2ccc(S(=O)(=O)Cc3ccccc3)cc2)cc1,inactive: -6.58%,
Nn1c(Cc2cccc3ccccc23)nnc1SCCOc1ccc(Br)cc1,,"inconclusive: 14.6 µM [inhibitor, partial curve, poor fit]"
NC(=O)CSc1nnc(NC(=O)c2ccc(S(=O)(=O)N3CCCCC3)cc2)s1,inactive: -0.635%,
CC(C)CCNC(=O)C(c1ccco1)N(Cc1cccs1)C(=O)Cn1nnc2ccccc21 (stereo not drawn),,"inconclusive: 18.4 µM [activator, partial curve, poor fit]"
Cc1ccc(C(=O)N2CCN(C(=O)c3ccco3)CC2)cc1NC(=O)c1ccco1,inactive: -10.2%,
CC(=O)c1sc(NCc2ccc(C)cc2)nc1C,,"inconclusive: 20.6 µM [activator, partial curve]"
COc1ccc(CN2CC(=O)N(c3cc(Cl)ccc3OC)C2=S)cc1OC,inactive: -7.97%,
Cc1nc2cc(F)ccc2n1C1CCN(C(=O)c2c(F)cccc2F)CC1,,"inconclusive: 13 µM [inhibitor, partial curve]"
C(=C\c1ccccc1)/C=N/Nc1ccc2nncn2n1,,"inconclusive: 16.4 µM [activator, partial curve, poor fit]"

# Complete entries as entered above.
# `CC(C)CCNC(=O)C(c1ccco1)N(Cc1cccs1)C(=O)Cn1nnc2ccccc21` (stereo not drawn) as listed: Potency: inconclusive: 18.4 µM [activator, partial curve, poor fit]
# `O=C(Nc1ccc2c(c1)OCO2)N1CCN(c2ncccn2)CC1` as listed: Potency: inconclusive: 29.1 µM [activator, partial curve, poor fit]
# `CCSc1nnc(-c2sc3nnc(-c4ccccc4)c(-c4ccccc4)c3c2N)o1` as listed: Potency: inconclusive: 8.2 µM [inhibitor, partial curve]
